Source: patent US12121026B1, “N-[(1-phenyl-4H-1,2,4-triazol-3-yl) carbamothioyl]benzamide as an eco-friendly insecticidal agent against spodoptera littoralis” (KING FAISAL UNIVERSITY, priority 2023, dated 2024)

Test system: second and fourth instars larvae of the laboratory strain of cotton leafworm, S. littoralis
Test: Insecticidal bioassay screening (castor leaf dip)
Type: in vivo
Details: after 72 hrs of treatment, slope of LDP line
Description: Five concentrations (200, 100, 50, 25, 12.5 ppm) were designed for this synthetic compound and the reference Diflubenzuron compound as the dynamic ingredients based on ppm via diluting the commercial formulation.
In this experiment, castor leaves are immersed in each of the previously prepared concentrations of the components for 10 seconds and then left to dry for 60 minutes. Larvae of the second and fourth instars of each checked strain are prepared with treated leaves in gauze-covered glass containers for 72 hrs. An untreated control is made in which leaves are dipped in triton x-100 and distilled water only. Then the preserved leaves were removed & fresh, untreated leaves were provided for 72 hours. Three replicates (10 larvae each) were checked for each concentration. Daily inspection was carried out for all treatments and mortality percentages were recorded 3 days (72 hours) after treatment. The average mortality percentage was corrected employing Abbott's formula. The corrected mortality rate for each of the previously synthesized compounds is statistically calculated according to Finney (1970). Through this rate, the corresponding concentration test lines (LDP lines) are assessed.

Compound `O=C(NC(=S)Nc1ncn(-c2ccccc2)n1)c1ccccc1` [Compound 1, N-[(1-phenyl-1H-1,2,4-triazol-3-yl)carbamothioyl]benzamide] has a Slope (2nd instar larvae) of 1.10 ± 0.36 and a Slope (4th instar larvae) of 1.123 ± 0.35.
